Test results published in article PMC7171142.
These are yes or no findings as the source states them, for the method shown. Binding seen in cells or lysates may run through a third protein. Some results given as binding are weak or reduced against the parent protein; the word gives no strength.

Sequences of proteins named here, by UniProt entry; tags and fusion partners are left off. Residues count along the entry.
UniProt O97302, residues 20-1086: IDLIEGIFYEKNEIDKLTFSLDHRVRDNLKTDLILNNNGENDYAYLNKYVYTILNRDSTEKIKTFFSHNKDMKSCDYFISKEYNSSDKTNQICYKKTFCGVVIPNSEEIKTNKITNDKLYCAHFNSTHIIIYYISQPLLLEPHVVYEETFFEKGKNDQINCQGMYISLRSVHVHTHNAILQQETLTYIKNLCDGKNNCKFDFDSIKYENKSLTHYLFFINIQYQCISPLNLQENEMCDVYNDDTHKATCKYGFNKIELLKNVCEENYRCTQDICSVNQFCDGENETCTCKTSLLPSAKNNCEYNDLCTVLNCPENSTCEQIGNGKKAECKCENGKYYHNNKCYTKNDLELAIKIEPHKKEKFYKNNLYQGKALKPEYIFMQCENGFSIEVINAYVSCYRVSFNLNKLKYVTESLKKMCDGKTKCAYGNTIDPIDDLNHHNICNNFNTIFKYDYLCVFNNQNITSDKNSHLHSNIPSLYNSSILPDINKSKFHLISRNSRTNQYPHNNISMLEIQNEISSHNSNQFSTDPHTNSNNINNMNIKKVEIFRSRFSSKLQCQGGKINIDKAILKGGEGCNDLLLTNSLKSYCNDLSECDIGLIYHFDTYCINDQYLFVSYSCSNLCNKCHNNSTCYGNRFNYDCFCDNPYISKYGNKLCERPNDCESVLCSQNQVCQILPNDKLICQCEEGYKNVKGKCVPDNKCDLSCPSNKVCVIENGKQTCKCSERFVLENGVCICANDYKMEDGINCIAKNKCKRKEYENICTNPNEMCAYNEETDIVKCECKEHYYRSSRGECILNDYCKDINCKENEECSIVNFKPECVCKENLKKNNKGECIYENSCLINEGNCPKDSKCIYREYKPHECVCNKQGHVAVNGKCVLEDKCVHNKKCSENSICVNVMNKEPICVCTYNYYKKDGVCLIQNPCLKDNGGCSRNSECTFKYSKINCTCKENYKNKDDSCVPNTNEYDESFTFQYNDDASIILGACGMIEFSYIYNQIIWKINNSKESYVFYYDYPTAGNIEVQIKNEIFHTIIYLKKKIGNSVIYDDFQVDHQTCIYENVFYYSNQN
UniProt Q8IFM5, residues 25-526: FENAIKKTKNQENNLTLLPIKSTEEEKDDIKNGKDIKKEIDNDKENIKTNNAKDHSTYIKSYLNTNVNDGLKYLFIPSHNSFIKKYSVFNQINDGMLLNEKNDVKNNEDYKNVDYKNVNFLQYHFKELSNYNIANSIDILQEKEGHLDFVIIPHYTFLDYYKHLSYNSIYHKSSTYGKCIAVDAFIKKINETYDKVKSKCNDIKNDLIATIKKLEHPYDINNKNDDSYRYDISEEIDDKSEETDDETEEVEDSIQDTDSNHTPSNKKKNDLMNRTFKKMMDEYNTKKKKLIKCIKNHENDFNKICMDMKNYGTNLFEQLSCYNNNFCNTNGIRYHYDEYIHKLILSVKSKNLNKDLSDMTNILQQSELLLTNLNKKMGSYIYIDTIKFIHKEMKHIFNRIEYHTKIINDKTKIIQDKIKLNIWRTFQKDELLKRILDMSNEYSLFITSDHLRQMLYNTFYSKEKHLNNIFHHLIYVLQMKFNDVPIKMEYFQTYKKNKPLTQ

Target: Full-length PfRipr (M1-N1086) with a C-terminal 3 x HA tag (P. falciparum 3D7) (UniProt O97302)
Test: co-IP; PfRipr-HA immunoprecipitated with rabbit anti-HA antibody from schizont-rich parasite lysates; Western blot

“Rh5 of the parasite lysate (from UniProt Q8IFM5 25-526)” was tested, and the binding was “binds”.
